Source: PubChem BioAssay AID686943 (Drosophila RNAi Screening Center, 2013)
Assay: 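Search across the genome for regulators of signalling from receptor tyrosine kinase to ERK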 (primary screen). Cell system: Drosophila S2R+ haemocyte-like cells expressing YFP-tagged ERK (Rolled). Knock-down reagent: long dsRNA against Drosophila genes. Treatment: insulin stimulation versus unstimulated cells; dose and duration not given. Detection: 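Per-plate z-scores of phospho-ERK immunostaining normalised to YFP-tagged ERK, measured with and without insulin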. Scale: replicate 1, z-score of dpERK with insulin: higher = more active ERK per ERK-YFP after insulin.
The deposit covers about 23,000 reagents; below is an unselected part of those with a known target gene and a result. 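Extra replicates exist only for a retested subset of genes; insulin dose and duration not given; both raised and lowered dpERK matter.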 Reagents against one gene are numbered here. A plus sign joins genes that one reagent is predicted to hit. Not all columns of the deposit are shown. Reagent sequences are not shown. The record does not give: the amount of reagent, the time to read-out.

The opening 3 entries, to show the layout:
Snx6
- replicate 1, z-score of dpERK with insulin: 0.3

CG4238 #1
- replicate 1, z-score of dpERK with insulin: 1.57

CG4238 #2
- replicate 1, z-score of dpERK with insulin: 0.28

Main list, repeating the preview:
Snx6
- replicate 1, z-score of dpERK with insulin: 0.3

CG4238 #1
- replicate 1, z-score of dpERK with insulin: 1.57

CG4238 #2
- replicate 1, z-score of dpERK with insulin: 0.28

CG5986
- replicate 1, z-score of dpERK with insulin: 0.85

Hsp60D
- replicate 1, z-score of dpERK with insulin: -0.41

CG4269
- replicate 1, z-score of dpERK with insulin: 0.03

CG18530
- replicate 1, z-score of dpERK with insulin: -1.28

COX4L
- replicate 1, z-score of dpERK with insulin: 0.2

vanin-like
- replicate 1, z-score of dpERK with insulin: -0.48

loaf
- replicate 1, z-score of dpERK with insulin: -0.06

Uxt
- replicate 1, z-score of dpERK with insulin: -0.77

grass
- replicate 1, z-score of dpERK with insulin: 1.39

Vmat + CG13330
- replicate 1, z-score of dpERK with insulin: -0.09

CheB38a
- replicate 1, z-score of dpERK with insulin: -1.79

CG32271
- replicate 1, z-score of dpERK with insulin: 0.87

Sry-alpha
- replicate 1, z-score of dpERK with insulin: -1.45

CG31077
- replicate 1, z-score of dpERK with insulin: -1.58

Rbf2
- replicate 1, z-score of dpERK with insulin: 0.9

COX5BL
- replicate 1, z-score of dpERK with insulin: 0.45

Sod3
- replicate 1, z-score of dpERK with insulin: -0.56

ptc #1
- replicate 1, z-score of dpERK with insulin: -0.51

ptc #2
- replicate 1, z-score of dpERK with insulin: -0.28

kek3 #1
- replicate 1, z-score of dpERK with insulin: 0

kek3 #2
- replicate 1, z-score of dpERK with insulin: 0.17

CG17300
- replicate 1, z-score of dpERK with insulin: -0.29

Rad17
- replicate 1, z-score of dpERK with insulin: -0.09

casp
- replicate 1, z-score of dpERK with insulin: 0.36

CG8834
- replicate 1, z-score of dpERK with insulin: 0.05

CG13306
- replicate 1, z-score of dpERK with insulin: -0.35

Pgam5
- replicate 1, z-score of dpERK with insulin: 0.7

CG5418
- replicate 1, z-score of dpERK with insulin: -0.18
